Results reported in patent publication US20100203587A1, “USE OF DNA GYRASE INHIBITORS FOR IN VITRO POLYPEPTIDE SYNTHESIS REACTIONS” (priority 2009, published 2010).
Counter-ions that a name gives are not always drawn.

System: bacterial growth from lysate
Assay: Inhibition of bacterial growth from lysate in LB medium (Example 6)
Assay type: cell-based
Conditions: 37° C., 16 hours

Row | SMILES | OD595 (cell density) (1 μg/ml) | OD595 (cell density) (10 μg/ml) | OD595 (cell density) (0.1 μg/ml) | OD595 (cell density) (0.5 μg/ml) | OD595 (cell density) (1 μg/ml, listed as Cipro.) | OD595 (cell density) (5 μg/ml) | OD595 (cell density) (10 μg/ml, listed as Cipro.)
1 | O=C(O)c1cn(C2CC2)c2cc(N3CCNCC3)c(F)cc2c1=O [Cipro./HCl, Ciprofloxacin] | 0.02 | 0.03 |  |  |  |  | 
2 | O=C(O)c1cn(C2CC2)c2cc(N3CCNCC3)c(F)cc2c1=O [Ciprofloxacin] |  |  | 0.58 | 0.08 | 0.07 | 0.02 | 0.04
